Patent publication US8691210B2, “Methods and compositions for generating an immune response by inducing CD40 and pattern recognition receptors and adaptors thereof” (priority 2006, dated 2014)
For some of these results: At least one structure is not confirmed: it was looked up by name or label, or the drawing left a doubt. Some entries share one result that the patent states for a list of compounds.

Columns and labels:
BMDCs = assay: BMDC survival (GM-CSF deprivation, wortmannin); assay type: cell-based
Procedure: To further test the hypothesis that PI3K and Akt are common regulators for innate and acquired immune signal-mediated DC survival, various concentrations (0.05-5 μM) of PI3K inhibitor, wortmannin, in BMDCs treated with LPS or anti-CD40 were tested.
To more directly investigate the role of Akt in PI3K-mediated DC survival, a previously described constitutively active Akt (M-Akt) allele, consisting of full length Akt, targeted to intracellular membranes with a myristoylation-targeting sequence from c-Src^62 was used. […] Therefore, to test the possibility that the efficient lipid raft localization of Akt improve its functions, this construct was compared with several distinct deregulated Akt alleles, containing myristoylation-targeting sequences from Src family kinases Src, Fyn and Lck fused to AAkt. The pleckstrin homology (PH) domain (residues 1-102) was removed to further improve Akt activity when PI3K is limiting^64. […] Therefore, MF-ΔAkt was used in subsequent experiments. Moreover, for improved expression in BMDCs, replication-defective adenovirus, Ad-MF-ΔAkt, expressing functionally optimized Akt was generated. Consistently, Ad-MF-ΔAkt led to higher GSK3α/β phosphorylation in BMDCs, compared with Ad-M-Akt^62. […] Thus, functionally optimized Akt almost completely suppresses induction of DC death by PI3K (but not Src) inhibition. […]

human DCs = assay: Cytokine (IL-12p70, IL-6) ELISA of human DC culture supernatants; assay type: cell-based; conditions: DCs cultured for 12 h in the presence of LPS or MPL alone
Procedure: Approximately 2×10^6 cells/ml were cultured in a 24-well dish and transduced with adenoviruses at 10,000 viral particle (vp)/cell (−160 MOI) for 90 min at 37° C. and 5% CO2. Immediately after transduction DCs were stimulated with MPL, FSL-1, Pam3CSK4 (InvivoGen, San Diego, Calif.), LPS (Sigma-Aldrich, St. Louis, Mo.), AP20187 (kind gift from ARIAD Pharmaceuticals, Cambridge, Mass.) or maturation cocktail (MC), containing 10 ng/ml TNF-alpha, 10 ng/ml IL-1beta, 150 ng/ml IL-6 (R&D Systems, Minneapolis, Minn.) and 1 micrograms/ml of PGE2 (Cayman Chemicals, Ann Arbor, Mich.). In T cell assays DCs were pulsed with 50 micrograms/ml of PSMA or MAGE 3 peptide 24 hours before and after adenoviral transduction.
Cell surface staining was done with fluorochrome-conjugated monoclonal antibodies (BD Biosciences, San Diego, Calif.). Cells were analyzed on a FACSCalibur cytometer (BD Biosciences, San Jose, Calif.). Cytokines were measured in culture supernatants using enzyme-linked immunosorbent assay kits for human IL-6 and IL-12p70 (BD Biosciences).

Compound | DC death (BMDCs; 0.05 μM, BMDCs treated with LPS or anti-CD40) | Duration of maintained viability after GM-CSF withdrawal (BMDCs; LPS 1 μg/ml pre-incubation or Ad infection) | IL-12 production (human DCs)
COC[C@H]1OC(=O)c2coc3c2[C@@]1(C)C1=C(C3=O)[C@@H]2CCC(=O)[C@@]2(C)C[C@H]1OC(C)=O [wortmannin] | rapidly induced DC death |  | 
Lipopolysaccharide [LPS] |  | at least 5 days | < 30 pg/mL
monophosphoryl lipid A [MPL] |  |  | < 30 pg/mL
